Results are given in words; binding and its absence hold for the method and conditions named.
Biological target: TPP-1985, hTNFRSF12 amino acids a28-80-W42A-hIgG1-Fc (human)
Test: ELISA, coated TWEAKR-Fc, biotinylated IgG titrated; grades explained in p-1341

Binder | binding
136.1(TPP-2194) (antibody, mouse IgG2a, kappa, V domains shown) VH: EVKLEESGGGLVQPGGSMKLSCVASGFTFNNYWMSWVRQSPEKGLEWLAEIRLKSDNYATHYAESVKGKFTISRDDSKSRLYLQMNNLRAENTGIYYCTGGFADYFDYWGQGTTLTVSS VL: DIVLTQSPASLTVSLGQRATISCRASQSVSTSSYSYMQWYQQRPGQPPKLLIKYATNLDSGVPARFSGSGSGTDFTLNIHPVEEEDAATYYCQHSWEIPYTFGGGTKLEIKR | no binding (tested: IC50 over 50 nM)
18.3.3(TPP-2193) (antibody, mouse IgG2a, kappa, V domains shown) VH: EVKLGESGGGLVQPGGSMKLSCVASGFPFTKYWMNWVRQSPEKGLEWVAEIRLKSDNYATHYAESAKGRFTISRDDSRSSVYLQMNNLRAEDTAIYYCSPTYADTMDYWGQGTSVTVSS VL: DIVLTQSPASLAVSLGQRATISCKASQSVSTSTYSYMQWYQQRPGQSPKLLIKYASKLDSGVPARFSGSGSGTDFTLNIHPVEEEDTATYYCQHSWELPYTFGGGTRLEIKR | no binding (tested: IC50 over 50 nM)
TPP-2090 (antibody, human IgG1, kappa, V domains shown) VH: EVQLLESGGGLVQPGGSLRLSCAASGFTFSPYPMIWVRQAPGKGLEWVSYISPSGGSTHYADSVKGRFTISRDNSKNTLYLQMNSLRAEDTAVYYCARGGDTYFDYFDYWGQGTLVTVSS VL: DIQMTQSPSSLSASVGDRVTITCRASQSISGYLNWYQQKPGKAPKLLIYQASSLQSGVPSRFSGSGSGTDFTLTISSLQPEDFATYYCQQSYTSPFITFGQGTKVEIKR | no binding (tested: IC50 over 50 nM)

Continued, values first:

binding | Binder
no binding (tested: IC50 over 50 nM) | P3G5(TPP-2195) (antibody, mouse IgG2a, kappa, V domains shown) VH: QVQLQQSGPEVVRPGVSVKISCKGSGYTFTDYGIHWVKQSHAKSLEWIGVISTYNGYTNYNQKFKGKATMTVDKSSSTAYMELARLTSEDSAIYYCARAYYGNLYYAMDYWGQGTSVTVSS VL: DIVLTQSPASLAVSLGQRATISCRANKSVSTSSYSYMHWYQQKPGQPPKLLIKYASNLESGVPARFSGSGSGTDFILNIHPVEEEDAATYYCQHSRELPFTFGSGTKLEIKR
no binding (tested: IC50 over 50 nM) | P4A8(TPP-1324) (antibody, human IgG1, kappa, V domains shown) VH: QVQLVQSGAEVKKPGASVKVSCKGSGYTFTDYGMHWVRQAPGQGLEWMGVISTYNGYTNYNQKFKGRVTMTVDKSTSTAYMELRSLRSDDTAVYYCARAYYGNLYYAMDYWGQGTLVTVSS VL: DIVLTQSPASLAVSLGQRATISCRASKSVSTSSYSYMHWYQQKPGQPPKLLIKYASNLESGVPARFSGSGSGTDFSLNIHPMEEDDTAMYFCQHSRELPFTFGGGTKLEIKR

Reference: patent US20190262463A1
